These are yes or no findings as the source states them, for the method shown. In cells and extracts the contact can be indirect. Some results given as binding are weak or reduced against the parent protein; the word gives no strength. Tags and fused reporters may be left off the sequences shown.
Target: GST-hLynSH3 (human Lyn SH3 domain, amino acids 63-123, with N-terminal GST) (human) (UniProt P07948)
Experiment: pull-down

Sequences of proteins named here, by UniProt entry; tags and fusion partners are left off. Residues count along the entry.
UniProt P07948, residues 63-123: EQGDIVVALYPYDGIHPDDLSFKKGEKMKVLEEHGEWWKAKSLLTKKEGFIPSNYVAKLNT

B1: His-tagged human thymidine phosphorylase (TYMP) (enzyme, UniProt P19971 11-482)
chain: APPAPGDFSGEGSQGLPDPSPEPKQLPELIRMKRDGGRLSEADIRGFVAAVVNGSAQGAQIGAMLMAIRLRGMDLEETSVLTQALAQSGQQLEWPEAWRQQLVDKHSTGGVGDKVSLVLAPALAACGCKVPMISGRGLGHTGGTLDKLESIPGFNVIQSPEQMQVLLDQAGCCIVGQSEQLVPADGILYAARDVTATVDSLPLITASILSKKLVEGLSALVVDVKFGGAAVFPNQEQARELAKTLVGVGASLGLRVAAALTAMDKPLGRCVGHALEVEEALLCMDGAGPPDLRDLVTTLGGALLWLSGHAGTQAQGAARVAAALDDGSALGRFERMLAAQGVDPGLARALCSGSPAERRQLLPRAREQEELLAPADGTVELVRALPLALVLHELGAGRSRAGEPLRLGVGAELLVDVGQRLRRGTPWLRVHRDGPALSGPQSRALQEALVLSDRAPFAAPSPFAELVLPPQQ
Q: For B1, which binding is on record?
A: binds
